Some of the results follow. At the low end of the ranking, values are background and their order means little.

The experiment deals with T1, PUM1 PUF domain R3-THE R4-TFR C935T + R936H + Q939E + N971T + H972F + Q975R (UniProt Q14671).
T1 sequence: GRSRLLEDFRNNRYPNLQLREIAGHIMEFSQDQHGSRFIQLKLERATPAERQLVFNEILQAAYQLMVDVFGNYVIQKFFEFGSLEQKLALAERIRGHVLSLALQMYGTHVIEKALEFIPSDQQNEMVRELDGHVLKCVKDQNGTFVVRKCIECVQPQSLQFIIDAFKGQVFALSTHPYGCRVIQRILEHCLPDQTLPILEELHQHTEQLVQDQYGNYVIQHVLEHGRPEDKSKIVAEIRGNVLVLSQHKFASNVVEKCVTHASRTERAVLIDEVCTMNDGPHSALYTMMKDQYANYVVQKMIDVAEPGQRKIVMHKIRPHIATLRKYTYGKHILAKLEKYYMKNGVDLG
Conditions: yeast three-hybrid, YBZ-1, SC-Leu-His + 0.5 mM 3-AT, 4 days.
Regarding “GGCUAGAACUAGUGGAUCCCCCGGCGCCCGGCGGCUCGAGCCCGGGUAAGCUAAAGAAGUCUGCAUGCCGCCGGGCGCCAUGCCUGCAGGUCGACUCUAGAAAACAUG”, the binding signal (log2 enrichment (interaction score)) was -7.53.
For “GGCUAGAACUAGUGGAUCCCCCGGCGCCCGGCGGCUCGAGCCCGGGUAAGUCCAAGACGUCUGCAUGCCGCCGGGCGCCAUGCCUGCAGGUCGACUCUAGAAAACAUG” the value was -7.11; for “GGCUAGAACUAGUGGAUCCCCCGGCGCCCGGCGGCUCGAGCCCGGGUAAGUUUACGGGGUCUGCAUGCCGCCGGGCGCCAUGCCUGCAGGUCGACUCUAGAAAACAUG”, below -6.81.
For “GGCUAGAACUAGUGGAUCCCCCGGCGCCCGGCGGCUCGAGCCCGGGUAAGUGUAUUUGGUCUGCAUGCCGCCGGGCGCCAUGCCUGCAGGUCGACUCUAGAAAACAUG” the value was -6.07; for “GGCUAGAACUAGUGGAUCCCCCGGCGCCCGGCGGCUCGAGCCCGGGUAAGCAUCCGGCGUCUGCAUGCCGCCGGGCGCCAUGCCUGCAGGUCGACUCUAGAAAACAUG”, below -7.08; for “GGCUAGAACUAGUGGAUCCCCCGGCGCCCGGCGGCUCGAGCCCGGGUAAGUUCGGGUAGUCUGCAUGCCGCCGGGCGCCAUGCCUGCAGGUCGACUCUAGAAAACAUG”, below -7.53.
Next, “GGCUAGAACUAGUGGAUCCCCCGGCGCCCGGCGGCUCGAGCCCGGGUAAGGGUAAGAUGUCUGCAUGCCGCCGGGCGCCAUGCCUGCAGGUCGACUCUAGAAAACAUG”: -6.58; “GGCUAGAACUAGUGGAUCCCCCGGCGCCCGGCGGCUCGAGCCCGGGUAAGUGGAUAAAGUCUGCAUGCCGCCGGGCGCCAUGCCUGCAGGUCGACUCUAGAAAACAUG”: -6.34.

The record behind these values is article PMC8384837.
